Data as given in PubChem BioAssay AID1259424 (University of Nebraska Medical Center, 2018).

Purpose: 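Rank knockdowns across the genome by resemblance to the KSR1 depletion profile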 (primary screen)
System: human HCT116 colon cancer cells
Knock-down reagent: siRNA pool against human genes, 50 nM
Read-out: 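Log2 levels of six mRNAs (branched-DNA multiplex), adjusted by two reference genes and the non-targeting median, then scored against the average KSR1 knockdown pattern as Pearson r and euclidean distance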
Scale: mean correlation with KSR1 profile: higher = expression change more like KSR1 knockdown
The deposit covers about 14,000 reagents; below is an unselected part. 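Higher correlation or smaller distance means closer resemblance to KSR1 loss; control wells, including KSR1 knockdowns, recur on many plates.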 Further read-outs or replicates are left out here. Reagent sequences are not shown. Not stated in the record: the time to read-out.

For PLPP4 (phospholipid phosphatase 4) the deposit lists mean correlation with KSR1 profile -0.257.
Depletion of A1BG (alpha-1-B glycoprotein) came out at: mean correlation with KSR1 profile -0.57.
With knock-down of MAPT (microtubule associated protein tau) the results were mean correlation with KSR1 profile -0.00217.
Silencing of IGFBP6 (insulin like growth factor binding protein 6) resulted in: mean correlation with KSR1 profile 0.515.
For CCNO (cyclin O) the deposit lists mean correlation with KSR1 profile 0.0694.
With knock-down of WDR70 (WD repeat domain 70), the screen gave mean correlation with KSR1 profile -0.247.
Knock-down of CASP1 (caspase 1) came out at: mean correlation with KSR1 profile -0.808.
ELP4 (elongator acetyltransferase complex subunit 4) scored mean correlation with KSR1 profile -0.446.
Against NOG (noggin) the deposit lists mean correlation with KSR1 profile -0.282.
Knock-down of CHMP4A (charged multivesicular body protein 4A) came out at: mean correlation with KSR1 profile -0.0477.
ADA (adenosine deaminase) scored mean correlation with KSR1 profile -0.428.
Against GAMT (guanidinoacetate N-methyltransferase), the values are mean correlation with KSR1 profile 0.459.
With knock-down of DIRAS1 (DIRAS family GTPase 1), the screen gave mean correlation with KSR1 profile 0.266.
Depletion of SDCBP (syndecan binding protein) resulted in: mean correlation with KSR1 profile 0.841.
CD28 (CD28 molecule) showed mean correlation with KSR1 profile -0.264.
After knock-down of PCDH19 (protocadherin 19) the results were mean correlation with KSR1 profile -0.172.
With knock-down of PTDSS1 (phosphatidylserine synthase 1) the results were mean correlation with KSR1 profile 0.524.
HEXIM1 (HEXIM P-TEFb complex subunit 1) showed mean correlation with KSR1 profile -0.496.
Depletion of ZNF157 (zinc finger protein 157) resulted in: mean correlation with KSR1 profile -0.0475.
After knock-down of FAM230C (family with sequence similarity 230 member C) the results were mean correlation with KSR1 profile -0.162.
With knock-down of CENPE (centromere protein E) the results were mean correlation with KSR1 profile -0.235.
Depletion of ABCG4 (ATP binding cassette subfamily G member 4) gave: mean correlation with KSR1 profile 0.805.
For MACC1 (MET transcriptional regulator MACC1), the entry reads mean correlation with KSR1 profile 0.624.
After knock-down of BICD2 (BICD cargo adaptor 2), the record shows mean correlation with KSR1 profile -0.349.
After knock-down of ZNF177 (zinc finger protein 177), the screen gave mean correlation with KSR1 profile 0.535.
UBE2G2 (ubiquitin conjugating enzyme E2 G2) showed mean correlation with KSR1 profile 0.0302.
After knock-down of DAZAP2 (DAZ associated protein 2) the results were mean correlation with KSR1 profile 0.68.
For RUNDC3A (RUN domain containing 3A), the entry reads mean correlation with KSR1 profile -0.327.
